Several values for one entry are separate records, joined by “and”; a condition that tells them apart may be missing. Identical values can stand only once. Like-named read-outs stand apart in the source and are kept apart here. Not every detail of the peptide structures is certain; ends, links or a residue may be inferred. No end group written: not given here.
Assays:
LLC = assay: Lewis lung carcinoma (LLC) tumor model in C57Bl/6J mice; type: in vivo, mouse; conditions: for inhibited LLC (tumor inhibition): peptides s.c. twice a day at 2.8 mg/kg/d, C57B1/6J mice
Procedure: Control mice were treated with PBS. In these experiments, LLC cells were implanted into the s.c. dorsa of C57B1/6J mice, and systemically treated. Peptides (mP1, mP2, mP5, and mP6) were injected (s.c.) twice a day at a dose of 2.8 mg/kg/d, whereas endostatin and PBS were administered once a day at a dose of 20 mg/kg/d.
(§1) BxPC-3 and LLC cells were grown in cell culture as described above. […] Mice were shaved and the dorsal skin was cleaned with ethanol before tumor cell injection. A suspension of 5×10^6 tumor cells in 0.1 ml RPMI-1640 (for BxPC-3) or DMEM (for LLC) was injected subcutaneously (s.c.) into the dorsa of mice at the proximal midline. BxPC-3 cells were implanted in SCID mice and LLC in C57B1/6J mice.
Animals with Lewis Lung carcinoma (600-800 mm^3 tumors) were euthanized, and the skin overlying the tumor was cleaned with Betadine and ethanol. Tumor tissue was excised under aseptic conditions. A suspension of tumor cells in 0.9% normal saline was made by passage of viable tumor tissue through a sieve and a series of sequentially smaller hypodermic needles of diameter 22- to 30-gauge. The final concentration was adjusted to 1×10^7 cells/ml, and the suspension was placed on ice. The injection of tumor cells was performed as described above.
(§2) The mice were weighed and tumors were measured every 3-5 days in two diameters with a dial-caliper. Volumes were determined using the formula a2×b×0.52 (where a is the shortest and b is the longest diameter). Data is represented as volume of treated tumor over control (T/C). At the completion of each experiment, the mice were euthanized with CO2 asphyxiation. Tumors were fixed in 10% buffered Formalin (Fisher Scientific, Fair Lawn, N.J.) and paraffin-embedded.
For treatment of tumor-bearing mice, tumor volumes were allowed to grow to approximately 100 mm^3, and mice were randomized. Treatment was performed by single bolus s.c. injections. Peptides were administered twice a day (every 12 hrs). Doses indicated for peptides were corrected for the purity of peptides (approximately 70%). For example, mice injected with 4 mg/kg/d peptide, were actually injected with 2.8 mg/kg/d after correction. The unpaired Student t-test was used for statistical analysis.

endometriotic lesions = type: in vivo, mouse; conditions: for reduction in lesion area compared to control: four weeks, dose printed 0.25 mg/kg (FIG. 10)
[1] = tested on: human umbilical vein endothelial cells (HUVEC); assay: VEGF stimulated migration of HUVEC, modified Boyden chambers; type: cell-based; conditions: VEGF 5 ng/ml
Procedure: Cell migration assays were performed using modified Boyden chambers (6.5-mm diameter, 10-μm thickness, 8-μm pores, Transwell-Costar Corp., Cambridge, Mass.) coated with 10 μg/ml fibronectin in PBS overnight at 4° C. and rinsed with PBS. Subconfluent cells were trypsinized (0.01% trypsin/5 mM EDTA), neutralized with trypsin neutralization solution (Cascade Biologics Inc., Portland, Oreg.), washed, and resuspended in endothelial basal medium (EBM; Clonetics) with 0.1% BSA in the presence or absence of human endostatin (40, 200, 1000 ng/ml). In a second experiment we added either 600 ng/ml human endostatin or mP-1 at various doses (60, 200, 600 ng/ml). Cells were maintained in suspension for 30 min, added to the top of each migration chamber and allowed to migrate for 4 h in the presence or absence of VEGF (5 ng/ml) in lower chamber. Adherent cells were fixed and stained using the Hema-3 Stain System (Fisher Diagnostics, Middletown, Va.), following manufacturer's instructions. Non-migratory cells were removed with a cotton swab, and the number of migratory cells per membrane was captured using bright field microscopy connected to a Spot digital camera (Diagnostic Instruments, Sterling Heights, Mich.). Migrated cells from the captured image were counted using NIH image software. Each determination represents the average of three individual wells, and error bars represent the standard deviation. Migration was normalized to percent migration, with migration to VEGF alone representing 100% migration. Each experiment was repeated a minimum of three times.

[2] = tested on: human pancreatic tumor cells BxPC-3; assay: BxPC-3 human pancreatic tumor model in SCID mice; type: in vivo; conditions: human endostatin peptides s.c. twice a day at 7 mg/kg/d, final measurement at 28 days, n=3
Procedure: These peptides were initially tested for anti-tumor activity employing the human pancreatic tumor cells BxPC-3 cells, which were implanted in the s.c. dorsa of SCID mice. For systemic treatment, human endostatin peptides, P1-P8, were administered subcutaneously (s.c.) twice a day at 7 mg/kg/d due to the high clearance rate from the mouse circulation. Full-length Fc-Endostatin, hFcES was administered subcutaneously only once per day at a dose of 20 mg/kg/d. PBS was used as a control.
as §1
as §2, with “paraffin-embedded. […]” for “paraffin-embedded.”

[3] = tested on: human microvascular endothelial cells (HMVECs); assay: VEGF-induced migration of HMVECs, modified Boyden chamber; type: cell-based; conditions: all doses, even at higher concentrations
Procedure: Endostatin peptides were tested for anti-endothelial cell migration activity. Inhibition of VEGF-induced migration of human microvascular endothelial cells (HMVECs) was determined using several doses of endostatin peptides (FIG. 5). Human peptides were used because the cells were of human origin and the migration response of the HMVECs was assayed using a modified Boyden chamber. VEGF (5 ng/ml) was used a chemotactic agent and cells were challenged with human endostatin (Entremed; EM-ES), human Fc-Endostatin (nFcES), human P1 (hP1), human P2 (hP2), human P6 (hP6), and human P1-H1/3A (hP1-H1/3A). Total migration per membrane was quantified from the capture images using Scion Image Software (National Institutes of Health) and the unpaired Student T test was used for statistical analysis. […] No significant differences in inhibition between these concentrations were observed. At higher and lower concentrations less or no inhibition was observed. At 500 ng/ml of hP1 no inhibition was observed. […]
The motility response of HMVEC-d cells was assayed using a modified Boyden chamber. […] The number of migrated cells was measured using microscopy (three fields from each membrane were captured using a 40× objective), and images were captured with a CCD camera using SPOT software. Total migration per membrane was quantified from the captured images using Scion Image software (National Institutes of Health). […]

[4] = larger follow-up experiment, no zinc added, four weeks (FIG. 10), control 6.2
[5] = larger follow-up experiment, no zinc added
[6] = with ZnCl2 added (FIG. 9), PBS control 5.90

Sequence	tumor volume (LLC; LLC, s.c., peptide alone or with 1 mM Zn2+ (FIGS. 3 and 4), versus PBS)	inhibited LLC (tumor inhibition) (LLC)	lesion area (endometriotic lesions; [4])	reduction in lesion area compared to control (endometriotic lesions; [5])	lesion area (endometriotic lesions; [6])	LLC tumor formation (LLC; higher concentration 14 mg/kg/d)	inhibited LLC (tumor inhibition) (LLC; 2.8 mg/kg/day)	lesion area (endometriotic lesions; no ZnCl2 added, PBS 6.35)	inhibition of VEGF stimulated migration ([1]; 60 ng/ml)	inhibition of VEGF stimulated migration ([1]; 200 ng/ml)	inhibition of VEGF stimulated migration ([1]; 600 ng/ml)	inhibited BxPC-3 (tumor inhibition) [2]	inhibition of EC migration [3]
ATAQDFQPVLHLVALNTPLSGGMRGIR [mP1-H1/3A]	essentially not affected	no effect	6.2 mm^2	No difference	–	–	–	–	–	–	–	–	–
HPAWPQKSVWHGSDPSGRRLMESY [mP6]	–	No or insignificant activity	3.9 mm^2	38%	3.64 mm^2	–	–	–	–	–	–	–	–
HTHQDFQPVLHLVALNTPLSGGMRGIR [mP1]	–	–	3.9 mm^2	38%	3.38 mm^2	inhibited LLC tumor formation less than at 2.8 mg/kg/d	44% and 42%	3.16 mm^2	25%	46%	44%	–	–
MRGIRGADFQAFQQARAVGLAGTFR [hP2]	–	–	–	–	–	–	–	–	–	–	–	19%	no effect at all

Source: patent US7645735B2, “Anti-angiogenic peptides for treating or preventing endometriosis” (Children's Medical Center Corporation, priority 2003, dated 2010)
